Source: publication PMC4439085
These are yes or no findings as the source states them, for the method shown. Binding seen in cells or lysates may run through a third protein. Here binding means that the protein was enriched with, or labelled near, the bait; the list need not be complete. For part of these data: A no says only that the protein was not detected with the bait. For part of these data: Sequences can lack the tags named with a protein.

Sequences of proteins named here, by UniProt entry; tags and fusion partners are left off.
UniProt P40235: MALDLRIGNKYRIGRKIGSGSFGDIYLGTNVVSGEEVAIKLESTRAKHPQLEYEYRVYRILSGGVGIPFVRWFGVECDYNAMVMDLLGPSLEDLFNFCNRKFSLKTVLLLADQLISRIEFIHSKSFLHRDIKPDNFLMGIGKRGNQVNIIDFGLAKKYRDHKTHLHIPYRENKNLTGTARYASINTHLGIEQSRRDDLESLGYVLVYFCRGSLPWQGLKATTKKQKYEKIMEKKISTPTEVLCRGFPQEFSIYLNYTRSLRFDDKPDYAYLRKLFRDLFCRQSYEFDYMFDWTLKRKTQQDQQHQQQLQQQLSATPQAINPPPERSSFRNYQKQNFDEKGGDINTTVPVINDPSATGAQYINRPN

T1: Hhp2-TAP (Schizosaccharomyces pombe) (UniProt P40236)
T1 sequence: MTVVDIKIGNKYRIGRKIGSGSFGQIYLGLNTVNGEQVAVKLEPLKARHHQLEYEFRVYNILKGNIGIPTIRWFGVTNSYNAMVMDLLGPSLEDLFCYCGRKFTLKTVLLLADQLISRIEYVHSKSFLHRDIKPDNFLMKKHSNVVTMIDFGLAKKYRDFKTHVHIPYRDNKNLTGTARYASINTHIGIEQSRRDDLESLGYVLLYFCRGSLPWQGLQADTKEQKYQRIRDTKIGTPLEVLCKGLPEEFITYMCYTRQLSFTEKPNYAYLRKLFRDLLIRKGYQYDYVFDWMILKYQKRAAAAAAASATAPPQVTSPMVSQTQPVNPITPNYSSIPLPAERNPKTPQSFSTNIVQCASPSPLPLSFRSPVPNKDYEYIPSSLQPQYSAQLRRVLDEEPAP


Columns and labels:
[1] = target: T1, Hhp2-TAP (Schizosaccharomyces pombe); experiment: affinity purification with mass spectrometry; tandem affinity purification (IgG Sepharose, TEV cleavage, calmodulin Sepharose) of TAP-tagged proteins from extracts of mitotically growing cells; IPP150 buffer; eluates analysed by LC-MS/MS
[2] = target: T1, Hhp2-TAP (Schizosaccharomyces pombe); experiment: affinity purification with mass spectrometry; tandem affinity purification (IgG Sepharose, TEV cleavage, calmodulin Sepharose) of TAP-tagged proteins from extracts of meiotically induced cells harvested 2.5-3.5 hr after induction; IPP150 buffer (50 mM Tris-HCl pH 8.0, 150 mM NaCl, 10% glycerol, 0.1% NP-40); eluates analysed by LC-MS/MS
[3] = target: Hhp1-TAP (Schizosaccharomyces pombe) (UniProt P40235); experiment: as above
[4] = target: Hhp1-TAP (Schizosaccharomyces pombe) (UniProt P40235); experiment: affinity purification with mass spectrometry; tandem affinity purification (IgG Sepharose, TEV cleavage, calmodulin Sepharose) of TAP-tagged proteins from extracts of mitotically growing cells; IPP150 buffer; eluates analysed by LC-MS/MS

Molecule | binding [2] | binding [3] | binding [1] | binding [4]
Hhp1 (from UniProt P40235 1-365) (enzyme) | binds | – | no binding (only in mitotically growing cells) | –
Hhp2 (enzyme, UniProt P40236 1-400) MTVVDIKIGNKYRIGRKIGSGSFGQIYLGLNTVNGEQVAVKLEPLKARHHQLEYEFRVYNILKGNIGIPTIRWFGVTNSYNAMVMDLLGPSLEDLFCYCGRKFTLKTVLLLADQLISRIEYVHSKSFLHRDIKPDNFLMKKHSNVVTMIDFGLAKKYRDFKTHVHIPYRDNKNLTGTARYASINTHIGIEQSRRDDLESLGYVLLYFCRGSLPWQGLQADTKEQKYQRIRDTKIGTPLEVLCKGLPEEFITYMCYTRQLSFTEKPNYAYLRKLFRDLLIRKGYQYDYVFDWMILKYQKRAAAAAAASATAPPQVTSPMVSQTQPVNPITPNYSSIPLPAERNPKTPQSFSTNIVQCASPSPLPLSFRSPVPNKDYEYIPSSLQPQYSAQLRRVLDEEPAP | – | binds | – | no binding (only in mitotically growing cells)
Psm1 (protein, UniProt O94383 1-1228) MGRLLRLEVENFKSYRGHQIIGPFEDFTSIIGPNGAGKSNLMDAISFVLGVKSSHLRSTNVKELIYRGKILQRDNTDFTDSSNPTTAYVKLMYELDNGEQREYKRAITPSGATEYKIDEEIVTFSEYCGSLQKENILVRARNFLVFQGDVETIASQSPLELSKLVEQISGSLEYKSEYDKSKDEQDKAVNLSAHSFNKKRGINAELRQYQEQKTEAERYQSQKEKRDSAQLVYLLWKLFHLEKSISSNMAEVTRLKADSIQLIERRDENTKEIEKLKEKEGSIRRNLLAFDRKVRKQEKLIASKRPELISIAEKALESKSNLRKIQRKAAEIEKDYSDQASTLQVLENQLTSLSAAEKEFLKDMQEKEQLKGLRLLPEDKEEYEGLRSEADKLNSNLLFKLQTLNRNIKVTSQSKDSLTSIVGDLESKIKSLHESVSSLDTERADLLAKINEKIESLELEKHDQQKKRLTYSELFHKTQELNEELQSCLQKILEASADRNESKQDAKKREALYALKRIYPEVKGRIIDLCTPTQKKYESAIAAALGKNFDAIVVETQAVAKECIDYIKEQRIGIMTFFPMDTIAASPVNQKFRGTHKGARLAIDVLNFESEYERVMISAVGNTLICDSMTVARDLSYNKRLNAKTVTLEGTVIHKTGLITGGSSNNRSAKHWDDHDFDLLTQTKDRLMHQIGEIEYQKSSCVITESDTVKLHSLESEISLLKDKYTVVSRSVEDKKKEIGHYESLIKEKQPHLSELEMELRNFVKSRDELQIQVEKVEEKIFSGFCKRIGISDIHTYDEIHRTFTQSFTQKQLEFTKQKSLLENRISFEKQRVSDTRLRLERMHKFIEKDQESIDNYEQNREALESEVATAEAELELLKEDFASENSKTEKILLAASEKKLVGKRLVSELTKLSGNITLLESEIDRYVSEWHAILRKCKLEDIDVPLREGSLTSIPIDDVSNSGDITMGEEPSEPVINFEKFGVEVDYDELDEELRNDGSESMASVLQEKLREYSEELDQMSPNLRAIERLETVETRLAKLDEEFAAARKAAKNAKERFNAVKQKRLQKFQAAFSHISEQIDPIYKELTKSPAFPLGGTAYLTLDDLDEPYLGGIKFHAMPPMKRFRDMDQLSGGEKTMAALALLFAIHSYQPSPFFVLDEIDAALDQTNVTKIANYIRQHASSGFQFVVISLKNQLFSKSEALVGIYRDQQENSSRTLSINLEGYVE | – | binds | – | –

The next lines start with results.

binding [2] | binding [3] | Molecule | binding [1] | binding [4]
binds | binds | Psm3 (protein, UniProt O42649 1-1194) MYITKIVIQGFKSYKDYTVIEPLSPHHNVIVGRNGSGKSNFFAAIRFVLSDAYTHLSREERQALLHEGPGATVMSAYVEVTFANADNRFPTGKSEVVLRRTIGLKKDEYSLDKKTVSKTEVINLLESAGFSRSNPYYIVPQGRVTSLTNAKDSERLELLKEVAGTQIYENRRAESNKIMDETIQKSEKIDELLQYIEERLRELEEEKNDLAVYHKKDNERRCLEYAIYSREHDEINSVLDALEQDRIAALERNDDDSGAFIQREERIERIKAEITELNHSLELLRVEKQQNDEDYTNIMKSKVALELQSSQLSRQIEFSKKDESSKLNILSELESKISEKENELSEILPKYNAIVSEADDLNKRIMLLKNQKQSLLDKQSRTSQFTTKKERDEWIRNQLLQINRNINSTKENSDYLKTEYDEMENELKAKLSRKKEIEISLESQGDRMSQLLANITSINERKENLTDKRKSLWREEAKLKSSIENVKDDLSRSEKALGTTMDRNTSNGIRAVKDIAERLKLEGYYGPLCELFKVDNRFKVAVEATAGNSLFHIVVDNDETATQILDVIYKENAGRVTFMPLNKLRPKAVTYPDASDALPLIQYLEFDPKFDAAIKQVFSKTIVCPSIETASQYARSHQLNGITLSGDRSDKKGALTAGYRDYRNSRLDAIKNVKTYQIKFSDLQESLEKCRSEIESFDQKITACLDDLQKAQLSLKQFERDHIPLKDELVTITGETTDLQESMHHKSRMLELVVLELHTLEQQANDLKSELSSEMDELDPKDVEALKSLSGQIENLSHEFDAIIKERAHIEARKTALEYELNTNLYLRRNPLKAEIGSDNRIDESELNSVKRSLLKYENKLQIIKSSSSGLEEQMQRINSEISDKRNELESLEELQHEVATRIEQDAKINERNAAKRSLLLARKKECNEKIKSLGVLPEEAFIKYVSTSSNAIVKKLHKINEALKDYGSVNKKAYEQFNNFTKQRDSLLARREELRRSQESISELTTVLDQRKDEAIERTFKQVAKSFSEIFVKLVPAGRGELVMNRRSELSQSIEQDISMDIDTPSQKSSIDNYTGISIRVSFNSKDDEQLNINQLSGGQKSLCALTLIFAIQRCDPAPFNILDECDANLDAQYRSAIAAMVKEMSKTSQFICTTFRPEMVKVADNFYGVMFNHKVSTVESISKEEAMAFVEG | – | –
binds | binds | Rec8 (protein, UniProt P36626 1-561) MFYNQDVLTKEKGGMGVIWLAATLGSKHSLRKLHKKDIMSVDIDEACDFVAFSPEPLALRLSSNLMIGVTRVWAHQYSFFHSQVSTLHLRVRKELDHFTSKPFKNIDIQNEQTNPKQLLLAEDPAFIPEVSLYDAFNLPSVDLHVDMSSFTQPKENPNISVLETLPDSTSYLINTSQNYSLRNNVSSFVYEDSRAFSTEEPLDFEFDENGDIQELTKGTINSDPSLQAASQHSNLGSVQREYNSEEQESRIHMFEIDEDVLPLPVPLQSVMDSEHNENEPRALKRRKVQKLLEPDENIELSTRTLSQWRKNYVERMIALEATKYVRRRGASSAKKKELNKFFDWESFHPLLKPWIEKLKPSNNTPSEIDDVLRNIDTSEVEVGRDVQGELGLNIPWNTSSRSNSAINSKSHSQTGSEHSTPLLDTKYRKRLPHSPSMPSRVEFLPALESSQFHETLNSELSLQLSDDFVLYKNTQEENAHLMLSMEKECANFYEYAKTAIYENNGRITFSSLLPNDLKRPVVAQAFSHLLSLATKSAFLVKQDKPYSEISVSLNLKSTDAI | – | –
